Experimental data taken from patent US4288609A, “Quaternary ammonium derivatives of adamantane with antimicrobic activity” (priority 1976, dated 1981).

Tests used:
[1] = test system: Trych. Mentagr. 1st.Pastuer; assay: MIC mildews, Trichophyton mentagrophytes (Table 2); assay type: cell-based; conditions: Sabourand broth
Description: (§1) The method for evaluating the activity in vitro against bacteria, fungi and protozoa consists in introducing calculated quantities of the substance, the activity of which it is desired to test, into culture media already inoculated with a predetermined number of test germs.
(§2) After 24 or 48 hours of incubation at 30° or 37° C., according to the micro-organism being tested, it is possible to evaluate the growth of the same in the culture broth; in this manner the minimum concentration (M.I.C.) which inhibits the growth of the micro-organisms in vitro is determined.
In order to confirm the wide spectrum of action of the compounds in question, their activity was also assessed against fungi (both mildews and yeasts) and protozoa, in this case also taking cetyl pyridine chloride as the standard substance.
(§3) Inoculation with Trichophyton mentagrophytes and Microsporum canis was effected in a ratio of 1% of the volume of medium used.
For the fungi Sabourand broth was used as a culture medium, whilst for the protozoa Kupferberg Trichomonas broth with 5% of horse serum was used. The results (MIC values in γ/ml) are recorded in Table 2.

[2] = test system: Nicrosporum Canis ATCC 11621; assay: MIC mildews, Microsporum canis (Table 2); assay type: cell-based; conditions: Sabourand broth
Description: as §1, §2, §3
(§4) For the fungi Sabourand broth was used as a culture medium, whilst for the protozoa Kupferberg Trichomonas broth with 5% of horse serum was used.

Candida Albic. SKF 2270 = assay: MIC yeasts, Candida albicans (Table 2); assay type: cell-based; conditions: Sabourand broth
Description: as §1, §2
(§5) Inoculation with Candida albicans or Candida pseudotropicalis was made by diluting cultures grown for 24 h at 30° C. (cellular density inoculated 10^3 /ml).
as §4

[3] = test system: Candida Pseudotrop. ATCC 2512; assay: MIC yeasts, Candida pseudotropicalis (Table 2); assay type: cell-based; conditions: Sabourand broth
Description: as §1, §2, §5, §4

[4] = test system: Trich. Vaginalis ISM 66/22; assay: MIC protozoa, Trichomonas vaginalis (Table 2); assay type: cell-based
Description: as §1, §2
(§6) Inoculation with Trichomonas vaginalis and Trichomonas foetus, obtained from cultures transplanted every other day to make them lively, was effected in a ratio of 3.5% of the volume of medium used.
as §4

Trich. Foetus ISM 66/23 = assay: MIC protozoa, Trichomonas foetus (Table 2); assay type: cell-based; conditions: Tritrichomonas foetus
Description: as §1, §2, §6, §4

Candida albicans = assay: Activity upon vaginal candidiasis in mice (Table 7); assay type: in vivo, female Swiss mice (Charles River CD1); conditions: 3% by weight
Description: The treatment groups consist each of 8 female Swiss mice (Charles River CD1) of average weight 20 g. The animals are infected with 0.025 ml of a 24 hour culture of Candida albicans, equal to 10^6 cellules.
0.025 ml of a suspension in lanoline of the compound to be tested, at the desired concentration, are applied locally twice a day for a week, the first treatment being started five hours after infection.
The control group is treated with the lanoline alone in the same way. On the eighth day vaginal washings are carried out with 0.025 ml of sterile physiological solution, and the liquid is sown in Petri dishes containing Bacto Biggy Agon Difco as a selective growing medium for the Candida.
After 48 hours of incubation of the dishes at 30° C. a count is taken of the colonies which have grown. Assessment of the activity is quantized using the indices listed here below:
The results are expressed as percentages of the average index of seriousness of the infection A.D.I. (Average Degree of Infection) in the animals treated with respect to the animals in the control group.
The substances under examination were tested at concentrations of 5 and 3% by weight.

## CCCCCCCCCCCCCCCC[n+]1ccccc1 [Cetyl pyridine chloride, cetyl pyridine chloride, reference compound]
[1]; +10% serum
  MIC: 30 µg/mL
[1]; without serum
  MIC: 0.5 µg/mL
[2]; ATCC11621, +10% serum
  MIC: 50 µg/mL
[2]; ATCC11621, without serum
  MIC: 0.5 µg/mL
Candida Albic. SKF 2270; +10% serum
  MIC: 100 µg/mL
Candida Albic. SKF 2270; without serum
  MIC: 5 µg/mL
[3]; ATCC2512, +10% serum
  MIC: 100 µg/mL
[3]; ATCC2512, without serum
  MIC: 0.5 µg/mL
[4]
  MIC: 10 µg/mL
Trich. Foetus ISM 66/23
  MIC: 5 µg/mL
Candida albicans
  average proliferation index (A.D.I): 2.00
